The list shows a part of the results. Shown are side measurements of this screen, not its main read-out; they come without a call. Most of these compounds were active or inconclusive in the main read-out, so they are no random draw. The note in brackets gives the kind of curve behind each potency; many fits are weak.
Assay: qHTS Assay for Lipid Storage Modulators in Drosophila S3 Cells;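 on cell number change: cells counted by Cell Tracker Red CMTPX staining in the red channel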
Conditions: BODIPY lipid droplet fluorescence, 18-24 h; for cell number change: measured here: cell count max response, cells fed with added oleic acid
Procedure, shortened: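 Drosophila S3 cells got compounds at several concentrations plus oleic acid (400 uM solution). Laser-scanning cytometry with 488 nm excitation read lipid droplets at 500-530 nm and cells at 575-640 nm. Percent activity was relative to 20 uM Triacsin C.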

[1] = measured here: lipid fluorescence (Fed channel) AC50, cells fed with added oleic acid
[2] = measured here: cell number channel AC50, cells fed with added oleic acid

Cn1cc(/C=N/NC(=O)c2ccccc2O)c2ccccc21
cell number change: -25.5%
AC50 [1]: 29.1 µM [falling, single point]

COC(=O)Cc1ccc(NC(=S)N2CCN(C)CC2)cc1
cell number change: -6.25%
AC50 [1]: 29.1 µM [falling, single point]

CCCCOC(=O)c1[nH]c(C)c(C(=O)OC)c1C
cell number change: -28.6%
AC50 [1]: 2.59 µM [falling, full curve, poor fit]

COc1ccc(Br)cc1CNc1ccc2[nH]c(=O)[nH]c2c1
cell number change: -1.06%

C=CCOc1ccc(C=Nc2cccc(Cl)c2)c(O)c1
cell number change: -0.446%
AC50 [1]: 0.651 µM [falling, full curve, poor fit]

CCOc1cccc(-c2cc(-c3n[nH]c(=S)n3CC)c3ccccc3n2)c1
cell number change: 9.81%
AC50 [1]: 0.517 µM [falling, partial curve, poor fit]

COc1ccc(NC(=O)Cn2nnc(-c3ccccc3F)n2)cc1Cl
cell number change: 27.8%
AC50 [2]: 2.59 µM [rising, full curve, poor fit]
AC50 [1]: 3.26 µM [rising, full curve]

CCCc1cc(C(=O)Nc2ccc(C(=O)c3ccc(F)cc3)cc2)n(C)n1
cell number change: 11.8%
AC50 [1]: 35.5 µM [falling, single point]

CCCCSc1cc(C)nc2ncnn12
cell number change: -18.2%

CC(C)c1ccc(NC(=O)C2CCCN(S(=O)(=O)c3cccnc3)C2)cc1 (stereo not given)
cell number change: 13.3%
AC50 [1]: 6.51 µM [rising, single point]

COCc1ccc(-c2c(-c3ccccc3OC)sc3cc4c(cc23)OCO4)cc1
cell number change: 7.7%
AC50 [1]: 0.146 µM [rising, single point]

CCOC(=O)c1c(N)sc(C(O)(C(F)(F)F)C(F)(F)F)c1-c1ccc(OC)cc1OC
cell number change: -33.2%
AC50 [2]: 18.4 µM [falling, single point]
AC50 [1]: 29.1 µM [falling, single point]

O=C(Nc1ccc(F)cc1)Nc1cnccn1
AC50 [2]: 6.31 µM [falling, single point]

COC(=O)c1cccc(S(=O)(=O)N2CCC(NC(=O)Nc3cccc(F)c3)CC2)c1
cell number change: -19.1%

COc1cc(NC(=O)C2CC(c3cccc(Br)c3)=NO2)cc(OC)c1OC (stereo not given)
cell number change: 8.07%
AC50 [1]: 2.06 µM [rising, partial curve, poor fit]

CCOC(=O)CNC(=O)c1ccc(C#CC2(O)CCCCC2)cc1
AC50 [2]: 6.51 µM [rising, single point]
AC50 [1]: 6.51 µM [rising, single point]

O=C(CCCNC(=O)c1ccc(Cl)cc1)OCc1cccc(Br)c1
cell number change: -18.1%

CCC(C)C(NC(=O)c1ccccc1NC(=O)c1ccco1)C(=O)NNC(=O)c1ccc(OC)cc1 (stereo not given)
cell number change: -47.4%
AC50 [2]: 8.2 µM [falling, partial curve]
AC50 [1]: 32.6 µM [falling, single point]

CC(C1CC1)N(C(=O)c1ccccc1[N+](=O)[O-])c1ccccc1 (stereo not given)
cell number change: 55.7%
AC50 [2]: 18.4 µM [rising, single point]
AC50 [1]: 29.1 µM [rising, single point]

COc1ccc(-n2c(SC3CCOC3=O)nc3ccccc3c2=O)cc1OC (stereo not given)
cell number change: -7.96%

O=C(c1ccc(Cl)s1)N1CCc2ccccc21
cell number change: -21.8%
AC50 [1]: 6.51 µM [rising, single point]

Cc1cc(C(=O)Nc2sccc2C#N)c2ccccc2n1
cell number change: 7.56%

CCc1nc2ccc(C(=O)NCCCN3CCN(c4ccccc4F)CC3)cc2nc1CC
AC50 [1]: 5.8 µM [rising, single point]

C/C(=N/NC(=O)c1cccs1)c1c(C)[nH]n(-c2nc3ccccc3s2)c1=O
cell number change: 10.1%
AC50 [1]: 16.4 µM [rising, single point]

COc1cccc(CSc2nnc(CSc3nc4nc(C)cc(C)n4n3)s2)c1
AC50 [1]: 6.51 µM [rising, single point]

O=C(Cn1cnc2c(oc3ccccc32)c1=O)NCc1ccccc1
cell number change: -6.37%
AC50 [2]: 0.651 µM [falling, full curve]
AC50 [1]: 0.651 µM [falling, partial curve, poor fit]

Cc1ccc(C)c(OCCC(=O)Nc2cccc(S(=O)(=O)N3CCCC3)c2)c1
AC50 [1]: 0.651 µM [rising, single point]

CCOc1ccc(N2C(=O)Nc3ccccc3C2(O)C(=O)N2CCN(c3ccccn3)CC2)cc1 (stereo not given)
AC50 [2]: 0.103 µM [rising, single point]
AC50 [1]: 0.13 µM [rising, single point]

Cc1ccc(S(=O)(=O)N2CCN(Cc3nc4ccccc4n3C)CC2)cc1
cell number change: -3.47%
AC50 [1]: 32.6 µM [rising, single point]

Cn1c(CSc2ncccn2)nnc1SCC(=O)N1CCCCC1
cell number change: -0.612%
AC50 [1]: 16.4 µM [rising, single point]

CC(C)Nc1cc(C(C)(C)C)nc2c(-c3ccccc3)cnn12
cell number change: -2.57%
AC50 [1]: 0.116 µM [rising, full curve, poor fit]

COc1ccccc1N1CCN(C(=O)C(NS(=O)(=O)c2cccs2)c2ccccc2)CC1 (stereo not given)
cell number change: -8.05%
AC50 [1]: 29.1 µM [falling, single point]

CCOc1ccc(N/C(C)=C\C(=O)c2ccc3c(c2)OCCO3)cc1
cell number change: -26.1%
AC50 [1]: 23.1 µM [falling, single point]

Cc1nnc(SCCn2c(N3CCN(C)CC3)nc3c2c(=O)n(C)c(=O)n3C)s1
cell number change: -6.18%

CC1CC(C)CN(C(=O)C2CCN(C(=O)Nc3ccccc3)CC2)C1 (stereo not given)
cell number change: -1.81%

CCOC(=O)Nc1cccc(OCC(=O)Nc2ccccc2OC)c1
cell number change: -9.09%
AC50 [1]: 29.1 µM [rising, single point]

CS(=O)(=O)c1ccc2nc(NC(=O)c3ccc(N4CCCC4=O)cc3)sc2c1
cell number change: 0.396%
AC50 [1]: 6.51 µM [rising, single point]

Cc1ccccc1Cn1c(NC2CCCC2)nc2c1c(=O)[nH]c(=O)n2C
cell number change: 5.25%
AC50 [1]: 25.9 µM [rising, partial curve]

O=C(NC(=S)Nc1cccc2ncccc12)c1ccccc1
cell number change: 42.2%
AC50 [2]: 23.1 µM [rising, single point]
AC50 [1]: 25.9 µM [rising, single point]

COc1ccc(N(CC(=O)Nc2ccc(OC)c(OC)c2)S(=O)(=O)c2ccccc2)cc1Cl
cell number change: -54.9%
AC50 [2]: 8.2 µM [falling, partial curve]
AC50 [1]: 29.1 µM [falling, single point]

Source: PubChem BioAssay AID2685 (National Center for Advancing Translational Sciences (NCATS), 2010)
